The series concerns NPC1. Kind of series: molecular variogram / VSP analysis of 48 NPC1 variants with and without SAHA. The following applies: with SAHA. More on the design: species or system human. From the text:
To generate phenotype landscapes that allow us to discover sequence-to-function-to-structure relationships for the entire polypeptide chain at atomic resolution, the training set comprising each of the 48 variant's normalized linear position in the NPC1 polypeptide sequence (referred to as VarSeqP) was plotted as an input value on the x-axis genotype coordinate. To assess the relationship of each genotype to function, we assigned as the y-axis input the known value of each variant's ChoI measurement. Distance values defined by VarSeqP-ChoI spatial relationship provide the first layer of spatial information for the analysis and show how ChoI homeostasis is influenced by a variant's sequence position. These 2D plots illustrate the striking change that occurs in such simple spatial relationships in response to SAHA where we detect a compaction of spatial relationships reflecting a substantial decrease in the ability of most variants to disrupt cholesterol homeostasis.
To address the spatial relationship between VarSeqP-ChoI measurements and trafficking given the importance of cellular location in proper of management of cholesterol by NPC1, an input z-value was assigned the known TrIdx value for each variant. The spatial relationship of the z-axis to each VarSeqP-ChoI value provides the second layer of spatial information that can now link variant sequence position and its impact on ChoI to the TrIdx, that is, its cellular location. The spatial relationships based on both distance and spatial variance for all possible 1128 variant pairwise combinations were modeled by a molecular variogram. […] Spatial relationships within the range are more dependent on one another (i.e., they covary with each other), while spatial relationships extending beyond the range are not correlated and of lower value in VSP in interpreting genotype to phenotype relationships. […] Moreover, the spatial variance (the plateau) of the TrIdx is reduced by 40%.
To assign a value to cholesterol homeostasis based on the TrIdx response to NPC1 variants, we flipped the biological features used for y-axis and z-axis. […] By reducing the inter-dependency of sequence modules that leads to disease phenotype in untreated cells, SAHA resolves the problem imposed by variant disrupted folding intermediates.

As to `O=C(CCCCCCC(=O)Nc1ccccc1)NO` [SAHA, Vorinostat], the “reduction of the spatial variance (the plateau) of the TrIdx” value is recorded as 40% and the “reduction of the spatial variance of the ChoI value” was roughly 70%. Further, the “range of the ChoI molecular variogram” value (0.08 without) was 0.02. Besides, the “range of the TrIdx molecular variogram” value (~250 amino acids without) was “about 40 amino acids”.

Source of the values: patent US12584173B2, “Methods for disease treatment and drug discovery” (The Scripps Research Institute, priority 2018, dated 2026).
